The text below walks through data of PubChem BioAssay AID2685 (National Center for Advancing Translational Sciences (NCATS), 2010).

The assay is described as follows: qHTS Assay for Lipid Storage Modulators in Drosophila S3 Cells.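 On cell number change: cells counted by Cell Tracker Red CMTPX staining in the red channel.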 To be noted: BODIPY lipid droplet fluorescence, 18-24 h; for cell number change: measured here: cell count max response, cells fed with added oleic acid. The method in brief: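 Laser-scanning cytometry quantifies lipid droplet accumulation (500–530 nm total intensity; droplet/cell object ratio) in oleic acid-fed (400 uM added) Drosophila S3 cells treated with a concentration series. 20 uM Triacsin C defined 100% inhibition.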
(Quantitative high-throughput screening tests each substance at several concentrations.)

Setting [1] is: measured here: cell number channel AC50, cells fed with added oleic acid.
[2] abbreviates: measured here: lipid fluorescence (Fed channel) AC50, cells fed with added oleic acid.

Some of the results follow. The main result of the screen is listed elsewhere. These columns were measured beside it and carry no call. The list favours compounds with an active or inconclusive main result. Words in brackets tell the shape of the fitted curve; partial curves, single points and poor fits give uncertain potencies.

As for `COc1ccc(NC(=O)c2cc3cc(C)ccc3n2C)c(OC)c1`, the cell number change was 25.2%.
Still for that read-out and setting: the same measure for `Cc1cc(C(=O)CCC(=O)Nc2ccc(S(N)(=O)=O)cc2)c(C)s1`: -16.6%.
As usually defined, the AC50 is the concentration giving half of the maximal activity seen. Low values mean greater potency, high ones weaker potency. `COc1ccc(/C=N/n2cc(-c3ccc(OC)cc3)nc2N)cc1`: the AC50 is, setting by setting: under setting [1], 2.91 µM [rising, partial curve, poor fit]; under setting [2], 3.26 µM [rising, partial curve].
In the case of `COc1nc(C)cc(C)c1S(=O)(=O)c1ccc(Cl)cc1`, the cell number change is 16.8%.
Take `Cc1cc(C(=O)CSc2nncs2)c(C)n1-c1c(C)n(C)n(-c2ccccc2)c1=O`: the cell number change is -0.39%.
Consider `Cc1ccc(N(CC(O)CN2C(=O)NC(C)(C)C2=O)S(=O)(=O)c2ccc([N+](=O)[O-])cc2)cc1` (configuration not stated), for which the cell number change was -3.54%. Besides, under setting [2], the AC50 is 6.51 µM [falling, single point].
For `CCN(c1ccccc1)S(=O)(=O)c1ccc(C(=O)N(CCN(C)C)c2nc3c(F)cc(F)cc3s2)cc1`, the cell number change is -24.8%. The AC50 under setting [2] was 0.58 µM [falling, single point].
For `CCCC(=O)Nc1ccc2nn(-c3ccc(OC)cc3)nc2c1`, the cell number change was -0.587%.
As to `Cc1ccc(S(=O)(=O)NNC(=O)c2ccc(NC(=O)C3CC3)cc2)cc1`, the cell number change came to 5.67%. Also, the AC50 under setting [1] is 0.326 µM [rising, partial curve, poor fit].
As for `CCOc1ccc(CCNC(=O)c2cc3c(s2)CS(=O)(=O)C3)cc1OCC`, the cell number change was determined as 29.7%.
As to `CCCCc1nc2cc(C(=O)N3CCCC3)ccc2o1`, the cell number change was -3.4%. Moreover, the AC50 under setting [2] was 29.1 µM [falling, single point].
Consider `COc1ccc(OC)c(NC(=O)CSc2nc3scc(C)c3c(=O)[nH]2)c1`, for which the cell number change came out at 6.09%.
Take `COc1cc([N+](=O)[O-])ccc1NC(=S)NNC(=O)CCC(=O)Nc1ccccc1Cl`: the cell number change came out at 3.24%. The AC50 under setting [2] is 0.146 µM [rising, full curve, poor fit].
Consider `CCCc1cc(=O)oc2c(C)c(OCC(=O)N3CCC(C(=O)O)CC3)ccc12`, for which the cell number change was 8.43%.
On to `Clc1ccc(C[n+]2csc3ccccc32)cc1`, for which the cell number change was -0.326%. Further, under setting [2], the AC50 is 0.058 µM [falling, full curve, poor fit].
Take `COc1cccc(CN2CCNC(=O)C2CC(=O)N2CCCCO2)c1OC` (configuration not stated): the cell number change is -0.149%. Moreover, the AC50 under setting [2] was 0.731 µM [falling, single point].
`Cc1ccccc1C(=O)NNC(=O)C(C)N1C(=O)c2ccccc2C1=O` (configuration not stated): the cell number change was -114%. Also, the AC50 under setting [1] was 0.651 µM [falling, single point]. The AC50 under setting [2] is 0.651 µM [falling, single point].
`Cc1sc2nc(CSc3nnc(Cc4cccs4)n3C3CCCCC3)[nH]c(=O)c2c1C`: the cell number change was -0.785%.
In the case of `Cn1ncc(C(=O)Nc2ccc(OC(F)(F)F)cc2)c1-n1cccc1`, the cell number change is 31.5%. In addition, under setting [1], the AC50 is 1.64 µM [rising, full curve]. In addition, the AC50 under setting [2] is 5.8 µM [rising, full curve].
Consider `O=C(COc1ccccc1)NCC(c1ccco1)N1CCCCC1` (configuration not stated), for which the AC50 under setting [1] is 0.146 µM [rising, full curve, poor fit].
For `CCCC(=O)c1c[nH]c(C(=O)N2CCOCC2)c1`, the cell number change is 17.3%. Under setting [2], the AC50 was 2.06 µM [falling, partial curve, poor fit].
As for `CN1CCN(C(=O)/C=C/c2cn(-c3ccccc3)nc2-c2ccc3c(c2)OCCO3)CC1`, the cell number change was determined as 81.7%. For the same compound, the AC50 under setting [1] is 0.146 µM [rising, full curve, poor fit]. The AC50 under setting [2] is 0.103 µM [rising, full curve, poor fit].
For the compound `COc1cccc(NC(=S)/C(=C(\[O-])c2ccc(OC(F)F)cc2)[n+]2ccccc2)c1`, the cell number change stood at 4.69%. Also, under setting [2], the AC50 is 6.51 µM [rising, single point].
Turning to `CCCN(CC(=O)Nc1ccccc1C)C(=O)c1ccc(S(=O)(=O)N2CCCC2)cc1`, the cell number change was -1.98%. Besides, the AC50 under setting [1] is 0.58 µM [falling, full curve]. Moreover, the concentration at half-maximal activity (AC50) under setting [2] is 0.58 µM [falling, full curve].
As to `COC(=O)C1=C(C)N=C2SC(C)C(=O)N2C1c1cccs1` (configuration not stated), the cell number change is -15.5%.
For the compound `CC1(C)Cc2nc(N3CCOCC3)c(C#N)cc2CO1`, the cell number change stood at 21.5%. In addition, under setting [2], the AC50 is 18.4 µM [falling, partial curve].
Consider `COCCn1c(N)c(C#N)c2nc3ccccc3nc21`, for which the cell number change came out at 46.4%. The AC50 under setting [1] was 9.2 µM [rising, partial curve, poor fit]. Also, the AC50 under setting [2] is 16.4 µM [rising, partial curve].
Turning to `Cc1cc(OCc2nn[nH]n2)c2c(-c3ccccc3)cc(=O)oc2c1`, the concentration at half-maximal activity (AC50) under setting [2] is 16.4 µM [rising, single point].
Take `NC(=O)C(c1ccccn1)c1ncc(C(F)(F)F)cc1Cl` (configuration not stated): the cell number change turned out to be 126%. Further, under setting [1], the AC50 is 0.00517 µM [falling, full curve, poor fit].
As to `Cc1ccc(C(=O)NC(C(=O)OCc2cn3cc(Cl)ccc3n2)C(C)C)cc1` (configuration not stated), the AC50 under setting [2] is 7.31 µM [falling, partial curve, poor fit].
For `S=C(NCCN1CCOCC1)NC1CCCCC1`, the cell number change is -0.0098%. In addition, under setting [2], the AC50 is 29.1 µM [falling, single point].
On to `O=C(COC(=O)c1ccc2ncsc2c1)Nc1cccc(Cl)c1`, for which the cell number change came out at 31.7%. Moreover, the AC50 under setting [1] is 13 µM [rising, single point]. For the same compound, the AC50 under setting [2] was 5.8 µM [rising, partial curve].
For `Cc1ccc(CSc2nnc3nc(C)cc(C)n23)cc1`, the cell number change is 54%. Besides, the AC50 under setting [1] is 23.1 µM [rising, partial curve].
Consider `O=C(C#Cc1ccccc1)c1cccc([N+](=O)[O-])c1`, for which the cell number change was -36.2%. The concentration at half-maximal activity (AC50) under setting [1] is 8.2 µM [falling, partial curve]. Moreover, the AC50 under setting [2] is 29.1 µM [falling, single point].
As to `O=C(COC(=O)c1ccc2c(c1)OCCO2)Nc1ccc(F)cc1`, the cell number change amounted to 67.5%. For the same compound, the AC50 under setting [1] was 13 µM [rising, partial curve].
As to `CCOC(=O)c1c(NC(=O)c2ccc(C)cc2)sc2c1CC(C)(C)OC2`, the cell number change stood at 48.6%. For the same compound, the AC50 under setting [1] was 0.731 µM [rising, full curve, poor fit]. The AC50 under setting [2] is 0.58 µM [rising, single point].
With `CCCNC(=O)Nc1cc(OC)c(OC)cc1Cc1nccc2cc(OC)c(OC)cc12`, the AC50 under setting [2] is 3.26 µM [rising, single point].
With `CCN(CC)c1ccc(-c2nc3cnccc3n2C)cc1`, the cell number change is -8.43%. The AC50 under setting [2] is 3.26 µM [rising, partial curve, poor fit].
Take `Cc1ccc(Oc2nnc(-c3cccs3)c3ccccc23)cc1C`: the cell number change was -13.9%. Under setting [2], the AC50 is 0.651 µM [rising, partial curve, poor fit].
